Values quoted from earlier work, collected in publication PMC10741027, “Risk Assessment of Psychotropic Drugs on Mitochondrial Function Using In Vitro Assays” (Biomedicines, 2023).

Legend:
CII-linked respiration = settings: read-out: CII-linked respiration IC50; isolated pig brain mitochondria; cited from earlier work
CI-linked respiration = settings: read-out: CI-linked respiration IC50; pig brain mitochondria; cited from earlier work

For `CN1c2ccccc2C(NCCCCCCC(=O)O)c2ccc(Cl)cc2S1(=O)=O` (centres unmarked) [Tianeptine], the IC50 (CII-linked respiration) is listed as 67.4 µM and the IC50 (CI-linked respiration) is listed as 88.9 µM.
